From publication doi:10.1101/2025.09.19.677360
Where a chain is given by its changes, count along the chain named. In names and notes the source's numbering stands. These are yes or no findings as the source states them, for the method shown. Some entries that bind do so weakly or less than the wild type.

Amino acid sequences for entries named in this document (tags omitted).
UniProt Q10428: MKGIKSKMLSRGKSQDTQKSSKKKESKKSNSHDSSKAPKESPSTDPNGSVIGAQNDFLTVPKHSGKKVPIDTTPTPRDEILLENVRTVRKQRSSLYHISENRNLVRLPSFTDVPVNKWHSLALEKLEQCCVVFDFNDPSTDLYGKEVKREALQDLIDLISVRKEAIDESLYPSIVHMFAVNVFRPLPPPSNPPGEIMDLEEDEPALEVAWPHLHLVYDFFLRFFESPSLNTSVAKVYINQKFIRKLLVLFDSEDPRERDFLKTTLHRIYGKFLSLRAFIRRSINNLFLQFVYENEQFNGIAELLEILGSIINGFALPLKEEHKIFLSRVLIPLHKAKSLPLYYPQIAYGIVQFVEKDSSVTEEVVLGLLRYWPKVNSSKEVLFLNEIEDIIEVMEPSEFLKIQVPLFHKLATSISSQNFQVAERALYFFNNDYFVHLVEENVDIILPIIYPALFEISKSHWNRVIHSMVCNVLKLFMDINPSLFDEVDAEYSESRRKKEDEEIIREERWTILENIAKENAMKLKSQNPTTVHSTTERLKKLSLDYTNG

B1: Rec8-2E (S449E, S450E) (protein, UniProt P36626 1-561)
chain: MFYNQDVLTKEKGGMGVIWLAATLGSKHSLRKLHKKDIMSVDIDEACDFVAFSPEPLALRLSSNLMIGVTRVWAHQYSFFHSQVSTLHLRVRKELDHFTSKPFKNIDIQNEQTNPKQLLLAEDPAFIPEVSLYDAFNLPSVDLHVDMSSFTQPKENPNISVLETLPDSTSYLINTSQNYSLRNNVSSFVYEDSRAFSTEEPLDFEFDENGDIQELTKGTINSDPSLQAASQHSNLGSVQREYNSEEQESRIHMFEIDEDVLPLPVPLQSVMDSEHNENEPRALKRRKVQKLLEPDENIELSTRTLSQWRKNYVERMIALEATKYVRRRGASSAKKKELNKFFDWESFHPLLKPWIEKLKPSNNTPSEIDDVLRNIDTSEVEVGRDVQGELGLNIPWNTSSRSNSAINSKSHSQTGSEHSTPLLDTKYRKRLPHSPSMPSRVEFLPALEEEQFHETLNSELSLQLSDDFVLYKNTQEENAHLMLSMEKECANFYEYAKTAIYENNGRITFSSLLPNDLKRPVVAQAFSHLLSLATKSAFLVKQDKPYSEISVSLNLKSTDAI
B2: Rec8-2A (S449A, S450A) (protein, UniProt P36626 1-561)
chain: B1 chain with E449A, E450A
B3: Rec8-WT (protein, UniProt P36626 1-561)
chain: B1 chain with E449S, E450S

Target: Par1, the PP2A subunit which binds Sgo1 (S. pombe) (UniProt Q10428)
Experiment: two-hybrid

binding | Binder
binds | B1
no binding | B2
no binding | B3
